We go through one molecule from paper doi:10.1101/2022.08.24.505076.

The target of the assay is T1, GFP-MND1 (UniProt Q9BWT6).
T1 sequence: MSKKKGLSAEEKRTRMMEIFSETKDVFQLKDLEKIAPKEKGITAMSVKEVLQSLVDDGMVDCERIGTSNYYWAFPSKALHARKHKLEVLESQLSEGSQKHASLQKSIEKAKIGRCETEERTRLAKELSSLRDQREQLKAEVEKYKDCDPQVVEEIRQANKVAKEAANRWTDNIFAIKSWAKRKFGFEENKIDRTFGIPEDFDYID
The experiment in a line: co-IP.

These are yes or no findings as the source states them, for the method shown. In cells and extracts the contact can be indirect. Some results given as binding are weak or reduced against the parent protein; the word gives no strength. Sequences can lack the tags named with a protein.

B1: HOP2 (protein, UniProt Q9P2W1 1-217)
chain: MSKGRAEAAAGAAGILLRYLQEQNRPYSSQDVFGNLQREHGLGKAVVVKTLEQLAQQGKIKEKMYGKQKIYFADQDQFDMVSDADLQVLDGKIVALTAKVQSLQQSCRYMEAELKELSSALTTPEMQKEIQELKKECAGYRERLKNIKAATNHVTPEEKEQVYRERQKYCKEWRKRKRMATELSDAILEGYPKSKKQFFEEVGIETDEDYNVTLPDP
Regarding B1, the binding result is recorded as “binds”.
